Measurements: PMC11441124
These are yes or no findings as the source states them, for the method shown. Binding seen in cells or lysates may run through a third protein. Some results given as binding are weak or reduced against the parent protein; the word gives no strength. Where a sequence is shown, tags or fusion partners need not be part of it.

Target: T1, ectopically expressed HSF1 with different tags (HA-HSF1 and Flag-HSF1), Q00613
T1 chain: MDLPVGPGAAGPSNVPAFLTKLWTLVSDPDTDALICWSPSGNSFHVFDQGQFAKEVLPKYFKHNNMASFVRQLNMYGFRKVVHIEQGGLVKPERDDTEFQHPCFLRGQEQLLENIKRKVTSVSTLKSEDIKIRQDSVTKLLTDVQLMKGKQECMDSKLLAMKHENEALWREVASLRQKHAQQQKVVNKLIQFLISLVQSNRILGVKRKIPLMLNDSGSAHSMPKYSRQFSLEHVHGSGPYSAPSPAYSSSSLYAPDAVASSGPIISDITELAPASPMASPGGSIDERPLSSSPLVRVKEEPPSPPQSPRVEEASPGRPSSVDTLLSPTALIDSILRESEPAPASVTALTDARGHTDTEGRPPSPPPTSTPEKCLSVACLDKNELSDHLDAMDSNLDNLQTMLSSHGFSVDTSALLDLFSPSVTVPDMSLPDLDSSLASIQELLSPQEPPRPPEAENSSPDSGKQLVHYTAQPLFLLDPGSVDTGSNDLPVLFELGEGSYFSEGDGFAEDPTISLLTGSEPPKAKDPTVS
Experiment: co-IP; HA-HSF1 and Flag-HSF1 co-expressed in PANC-1 and PaTu8988 cells for 48 h; with BAP1 knock-out (interaction increased) or BAP1 overexpression (interaction attenuated)
Conditions: remark: other sources report otherwise

B1: ectopically expressed HSF1 with different tags (HA-HSF1 and Flag-HSF1), Q00613 1-529 (protein)
chain: T1 chain
  binding: binds
